In the supplement of paper PMC12823440, “Inhibitors supercharge kinase turnover through native proteolytic circuits” (Nature, 2025):
Counter-ions that a name gives are not always drawn. The list shows a part of the results. The calls rarely recur for the same compound in another form.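 Kinases, fused to nanoluciferase, were expressed in K562 cells; luminescence was measured every 4 h from 2 to 18 h as percent of control (DMSO = 100%, positive control = 0%). A time point is decreased if signal falls significantly (2 sigma). Hits were called by the authors by a rule that is not shown; the count of time points alone does not decide it.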

The chains behind the UniProt entries cited, without tags or fusion partners. Where a name states a change or a piece, a line headed by the entry shows the natural chain unless it says otherwise.
UniProt Q8IWU2: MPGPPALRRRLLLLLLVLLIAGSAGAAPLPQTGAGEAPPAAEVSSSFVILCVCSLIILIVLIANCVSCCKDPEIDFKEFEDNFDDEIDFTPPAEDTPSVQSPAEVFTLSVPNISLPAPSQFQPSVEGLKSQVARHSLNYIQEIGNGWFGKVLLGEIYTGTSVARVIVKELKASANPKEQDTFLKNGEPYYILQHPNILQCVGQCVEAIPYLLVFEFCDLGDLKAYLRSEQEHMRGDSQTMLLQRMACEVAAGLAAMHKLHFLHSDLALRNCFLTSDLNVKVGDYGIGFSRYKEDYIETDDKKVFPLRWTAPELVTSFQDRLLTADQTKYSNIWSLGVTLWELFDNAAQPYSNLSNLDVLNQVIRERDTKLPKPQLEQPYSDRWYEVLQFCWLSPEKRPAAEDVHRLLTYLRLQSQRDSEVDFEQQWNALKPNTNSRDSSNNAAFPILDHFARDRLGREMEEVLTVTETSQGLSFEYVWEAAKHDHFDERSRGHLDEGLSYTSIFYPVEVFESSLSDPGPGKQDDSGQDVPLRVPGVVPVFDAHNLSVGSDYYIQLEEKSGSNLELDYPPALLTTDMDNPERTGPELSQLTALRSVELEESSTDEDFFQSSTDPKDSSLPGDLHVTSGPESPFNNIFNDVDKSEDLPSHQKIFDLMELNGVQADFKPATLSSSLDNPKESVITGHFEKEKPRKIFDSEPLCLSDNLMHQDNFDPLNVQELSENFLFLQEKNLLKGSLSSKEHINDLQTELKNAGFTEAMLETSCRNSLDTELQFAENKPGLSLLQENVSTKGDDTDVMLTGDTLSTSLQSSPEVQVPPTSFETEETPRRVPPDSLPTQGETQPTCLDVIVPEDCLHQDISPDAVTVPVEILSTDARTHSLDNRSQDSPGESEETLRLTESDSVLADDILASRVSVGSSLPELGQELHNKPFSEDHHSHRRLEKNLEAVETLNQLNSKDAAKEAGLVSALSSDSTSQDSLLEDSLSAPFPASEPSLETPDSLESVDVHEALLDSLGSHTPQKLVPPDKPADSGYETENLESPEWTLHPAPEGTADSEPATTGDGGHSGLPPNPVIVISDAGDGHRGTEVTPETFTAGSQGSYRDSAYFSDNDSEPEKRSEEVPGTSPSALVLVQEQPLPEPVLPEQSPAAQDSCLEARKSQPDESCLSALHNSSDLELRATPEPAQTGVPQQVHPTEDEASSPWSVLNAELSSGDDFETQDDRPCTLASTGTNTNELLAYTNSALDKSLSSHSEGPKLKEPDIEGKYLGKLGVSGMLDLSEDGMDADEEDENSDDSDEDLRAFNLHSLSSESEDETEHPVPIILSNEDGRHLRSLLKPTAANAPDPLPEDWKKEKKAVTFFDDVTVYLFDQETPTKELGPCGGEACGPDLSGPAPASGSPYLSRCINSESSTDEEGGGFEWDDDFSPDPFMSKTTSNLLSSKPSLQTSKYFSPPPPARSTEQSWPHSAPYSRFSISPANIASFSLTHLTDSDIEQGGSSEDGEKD
UniProt P07948: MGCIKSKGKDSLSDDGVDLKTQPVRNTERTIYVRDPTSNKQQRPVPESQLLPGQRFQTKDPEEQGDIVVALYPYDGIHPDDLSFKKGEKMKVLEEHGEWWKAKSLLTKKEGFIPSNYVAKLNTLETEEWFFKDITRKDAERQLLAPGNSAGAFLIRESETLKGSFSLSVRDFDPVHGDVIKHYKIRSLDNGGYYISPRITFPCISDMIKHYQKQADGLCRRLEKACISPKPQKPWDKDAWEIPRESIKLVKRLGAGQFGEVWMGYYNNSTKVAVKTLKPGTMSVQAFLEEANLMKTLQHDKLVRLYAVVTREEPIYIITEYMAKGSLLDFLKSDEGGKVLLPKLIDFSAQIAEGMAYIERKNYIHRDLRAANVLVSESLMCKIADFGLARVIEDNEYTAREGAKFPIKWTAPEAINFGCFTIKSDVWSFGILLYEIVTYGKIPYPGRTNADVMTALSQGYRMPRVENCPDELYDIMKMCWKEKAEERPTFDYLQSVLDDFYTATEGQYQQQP
UniProt Q12851: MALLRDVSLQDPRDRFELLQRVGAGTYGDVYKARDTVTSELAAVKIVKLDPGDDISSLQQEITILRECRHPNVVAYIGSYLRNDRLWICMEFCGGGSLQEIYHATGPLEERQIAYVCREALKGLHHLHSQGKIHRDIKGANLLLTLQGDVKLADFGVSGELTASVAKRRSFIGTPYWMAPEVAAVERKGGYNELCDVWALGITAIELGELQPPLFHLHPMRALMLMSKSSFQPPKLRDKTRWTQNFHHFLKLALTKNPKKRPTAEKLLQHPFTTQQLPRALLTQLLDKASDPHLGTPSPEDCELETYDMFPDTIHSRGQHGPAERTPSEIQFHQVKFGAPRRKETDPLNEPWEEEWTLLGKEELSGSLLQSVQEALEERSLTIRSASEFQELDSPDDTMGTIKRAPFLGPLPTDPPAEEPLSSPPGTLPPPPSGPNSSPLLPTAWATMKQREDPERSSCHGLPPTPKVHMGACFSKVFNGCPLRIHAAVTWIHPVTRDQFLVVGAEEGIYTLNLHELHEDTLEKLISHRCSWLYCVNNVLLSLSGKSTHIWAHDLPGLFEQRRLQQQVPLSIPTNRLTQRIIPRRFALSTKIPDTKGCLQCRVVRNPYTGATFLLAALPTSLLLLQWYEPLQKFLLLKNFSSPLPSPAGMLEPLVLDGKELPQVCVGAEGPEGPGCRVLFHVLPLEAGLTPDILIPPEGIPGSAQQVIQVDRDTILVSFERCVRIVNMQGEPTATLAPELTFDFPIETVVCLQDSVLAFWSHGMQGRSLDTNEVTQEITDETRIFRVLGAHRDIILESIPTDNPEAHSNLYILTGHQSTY
UniProt P28482, whole entry: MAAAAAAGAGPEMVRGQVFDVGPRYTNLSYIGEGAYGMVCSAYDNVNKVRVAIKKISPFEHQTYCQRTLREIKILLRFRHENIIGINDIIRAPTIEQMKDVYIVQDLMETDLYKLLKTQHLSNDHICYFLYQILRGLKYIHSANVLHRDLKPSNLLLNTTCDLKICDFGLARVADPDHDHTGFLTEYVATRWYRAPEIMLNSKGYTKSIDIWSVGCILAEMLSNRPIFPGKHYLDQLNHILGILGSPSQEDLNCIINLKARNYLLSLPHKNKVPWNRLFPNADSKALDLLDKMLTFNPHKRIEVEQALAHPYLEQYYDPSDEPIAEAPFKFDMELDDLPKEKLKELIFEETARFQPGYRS
UniProt P31152, whole entry: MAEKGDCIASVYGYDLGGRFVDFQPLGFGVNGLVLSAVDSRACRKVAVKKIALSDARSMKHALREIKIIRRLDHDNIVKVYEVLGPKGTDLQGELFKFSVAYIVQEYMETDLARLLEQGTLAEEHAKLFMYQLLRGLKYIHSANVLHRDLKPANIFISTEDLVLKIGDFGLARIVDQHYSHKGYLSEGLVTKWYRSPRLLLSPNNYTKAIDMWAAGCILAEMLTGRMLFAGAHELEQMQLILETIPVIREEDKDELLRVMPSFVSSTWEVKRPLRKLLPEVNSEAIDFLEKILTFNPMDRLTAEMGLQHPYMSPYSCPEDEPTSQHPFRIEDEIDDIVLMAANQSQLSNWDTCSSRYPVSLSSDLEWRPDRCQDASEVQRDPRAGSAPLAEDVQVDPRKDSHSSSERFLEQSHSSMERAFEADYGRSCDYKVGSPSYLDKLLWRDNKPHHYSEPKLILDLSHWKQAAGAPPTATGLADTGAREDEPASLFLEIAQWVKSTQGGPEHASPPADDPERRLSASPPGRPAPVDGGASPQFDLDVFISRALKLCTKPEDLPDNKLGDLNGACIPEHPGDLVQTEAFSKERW
UniProt P49137, whole entry, looked up: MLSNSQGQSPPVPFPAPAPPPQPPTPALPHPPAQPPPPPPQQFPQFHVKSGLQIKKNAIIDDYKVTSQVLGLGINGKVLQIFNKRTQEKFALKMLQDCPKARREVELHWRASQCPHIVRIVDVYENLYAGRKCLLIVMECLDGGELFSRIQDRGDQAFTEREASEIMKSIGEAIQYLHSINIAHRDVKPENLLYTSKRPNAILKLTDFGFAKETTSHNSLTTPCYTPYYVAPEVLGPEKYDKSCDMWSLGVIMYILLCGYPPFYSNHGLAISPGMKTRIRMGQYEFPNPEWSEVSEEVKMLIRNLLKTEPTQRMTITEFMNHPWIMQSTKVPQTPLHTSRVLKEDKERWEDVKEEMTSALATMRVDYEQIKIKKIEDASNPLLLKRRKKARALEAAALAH
UniProt Q9BUB5: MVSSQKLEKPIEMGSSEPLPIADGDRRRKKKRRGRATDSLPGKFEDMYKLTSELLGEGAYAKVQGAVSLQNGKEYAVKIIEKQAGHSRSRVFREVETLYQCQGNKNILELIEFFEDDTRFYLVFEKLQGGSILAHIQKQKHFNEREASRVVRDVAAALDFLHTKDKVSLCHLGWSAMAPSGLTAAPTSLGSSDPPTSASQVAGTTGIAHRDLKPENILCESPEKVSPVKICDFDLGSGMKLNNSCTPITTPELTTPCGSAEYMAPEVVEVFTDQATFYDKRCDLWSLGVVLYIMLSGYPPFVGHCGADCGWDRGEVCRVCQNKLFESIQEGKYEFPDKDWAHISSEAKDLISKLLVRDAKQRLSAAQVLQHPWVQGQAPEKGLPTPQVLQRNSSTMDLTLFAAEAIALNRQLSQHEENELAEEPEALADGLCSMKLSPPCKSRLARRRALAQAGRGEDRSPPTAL
UniProt Q16620, whole entry, looked up: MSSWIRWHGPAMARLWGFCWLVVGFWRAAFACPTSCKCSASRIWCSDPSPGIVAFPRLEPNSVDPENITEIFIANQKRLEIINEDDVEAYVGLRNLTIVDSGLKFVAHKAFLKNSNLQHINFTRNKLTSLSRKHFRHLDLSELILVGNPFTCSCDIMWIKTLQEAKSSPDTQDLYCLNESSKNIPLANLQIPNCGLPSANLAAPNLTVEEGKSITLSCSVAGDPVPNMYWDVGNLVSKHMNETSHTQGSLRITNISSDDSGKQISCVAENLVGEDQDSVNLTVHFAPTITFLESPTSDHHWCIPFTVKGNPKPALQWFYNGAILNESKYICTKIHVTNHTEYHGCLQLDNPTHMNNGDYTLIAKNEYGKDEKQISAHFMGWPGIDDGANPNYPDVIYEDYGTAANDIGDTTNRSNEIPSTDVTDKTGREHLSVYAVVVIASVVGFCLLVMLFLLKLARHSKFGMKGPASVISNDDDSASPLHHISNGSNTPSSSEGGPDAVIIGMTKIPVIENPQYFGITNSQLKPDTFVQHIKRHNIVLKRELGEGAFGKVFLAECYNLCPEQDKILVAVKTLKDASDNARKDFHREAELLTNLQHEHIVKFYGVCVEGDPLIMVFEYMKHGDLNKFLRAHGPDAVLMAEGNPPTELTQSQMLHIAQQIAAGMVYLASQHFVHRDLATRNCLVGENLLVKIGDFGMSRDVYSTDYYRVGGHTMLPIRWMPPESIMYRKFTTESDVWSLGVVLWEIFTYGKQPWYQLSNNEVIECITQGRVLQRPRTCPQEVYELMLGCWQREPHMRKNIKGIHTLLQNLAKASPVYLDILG

Legend:
Test in all cases: number of time points (of 5) at which kinase-Nluc abundance scored as decreased, DMSO-normalised (count); higher = more persistent destabilization
Settings in all cases: K562; 2-18 h
[1] = biological target: LMTK2 (UniProt Q8IWU2)
[2] = biological target: LYN (UniProt P07948)
[3] = biological target: MAP2K1 (UniProt Q02750)
[4] = biological target: MAP2K2 (UniProt P36507)
[5] = biological target: MAP4K2 (UniProt Q12851)
[6] = biological target: MAPK1 (UniProt P28482)
[7] = biological target: MAPK4 (UniProt P31152)
[8] = biological target: MAPKAPK2 (UniProt P49137)
[9] = biological target: MKNK1 (UniProt Q9BUB5)
[10] = biological target: NTRK2 (UniProt Q16620)

Measured: number of time points

CNC(=O)c1cc(Oc2ccc3nc(N[C@@H]4CCCC[C@H]4O)sc3c2)ccn1 (10 µM)
0: all assays above

CN(C)c1nc2c(Br)c(Br)c(Br)c(Br)c2n1CC(=O)O (10 µM)
0: all assays above

Cc1cc(Nc2nc(N[C@@H](C)c3ncc(F)cn3)ncc2Cl)[nH]n1 (10 µM)
0: all assays above

Looked up one by one from the list above, two records:
Cc1cc(Nc2nc(N[C@@H](C)c3ncc(F)cn3)ncc2Cl)[nH]n1 (10 µM)
0: all assays above

CN(C)c1nc2c(Br)c(Br)c(Br)c(Br)c2n1CC(=O)O (10 µM)
0: all assays above

Continued.

c1cc(-c2cnn3cc(-c4ccc(N5CCNCC5)cc4)cnc23)c2cccnc2c1 (2.5 µM)
0: all assays above

CC(=O)NCCc1c[nH]c2ccc(O)cc12 [N-Acetyl-5-hydroxytryptamine] (10 µM)
0: all assays above

C=C[C@H]1[C@H](O[C@@H]2O[C@H](CO)[C@@H](O)[C@H](O)[C@H]2OC(=O)c2c(O)cc(O)cc2-c2cccc(O)c2)OC=C2C(=O)OCC[C@H]21 [Amarogentin] (10 µM)
0: all assays above

O=C(Nc1ccc(Cl)c(Cl)c1)Nc1ccc2nnsc2c1 (10 µM)
0: all assays above

COc1ccc2c(c1OC)OC1c3ccc(O)cc3OCC21 (stereo not given) [Methylnissolin] (10 µM)
0: all assays above

O=[N+]([O-])c1ccc(Sc2cccc[n+]2[O-])c2nonc12 (2.5 µM)
0: all assays above

COc1ccc2c(Oc3ccc(NC(=O)c4c(C)n(CC(C)(C)O)n(-c5ccccc5)c4=O)cc3F)ccnc2c1 (2.5 µM)
1: [9]
0: all other assays above

C=CC(=O)N1CCC[C@@H](n2nc(C(=O)Nc3ccc(CC(=O)N(C)C)c(C)c3C)c3c(N)ncnc32)C1 (10 µM)
0: all assays above

CC(C)(C)Cn1c(N)nc2ccc(-c3[nH]c(C(C)(C)C)nc3-c3ccc(F)cc3)nc21 [Ralimetinib dimesylate] (2.5 µM)
0: all assays above

COc1c(O)cc2oc3cc(O)c(CC=C(C)C)c(O)c3c(=O)c2c1CCC(C)(C)O [Garcinone D] (2.5 µM)
0: all assays above

Nc1nc2cc(-c3ccc4ncc(C(=O)N5CCOCC5)n4c3)ccc2o1 [Serabelisib] (10 µM)
0: all assays above

Nc1cccc(S(=O)(=O)N2CCCN(S(=O)(=O)c3ccc4c(c3)OCCO4)CC2)c1 (10 µM)
0: all assays above

O[C@H]1CC[C@H](Nc2ncc3nc(Nc4c(F)cc(F)cc4F)n([C@H]4CCOC4)c3n2)CC1 [Tanzisertib] (10 µM)
0: all assays above

CN1CC[C@H](c2c(O)cc(O)c3c(=O)cc(-c4ccc(C(F)(F)F)cc4Cl)oc23)[C@H]1CO [(2S,3R)-Voruciclib (hydrochloride)] (2.5 µM)
3: [1]
0: all other assays above
